Data taken from article PMC9318729 (Toxins, 2022).

Test system: A549 cells
Test: MTT cell viability assay
Type: cell-based, human
Conditions: 24 h treatment, mean ± SEM (n = 3), read-out: IC50 against A549 cells
Protocol: MTT assay was performed to analyze cellular viability as previously reported by us. Briefly, A549, H3122, PC-9, H460 and MRC-5 cells (1 × 10^4 cells/well) were grown in 96-well plates and exposed to the different concentrations of Smp24 (1.25–20 μM) with 24 h. […] After incubation, 10 µL MTT (5 mg/mL) was added before incubation for 4 h at 37 °C in the dark. Subsequently, the cell medium was discarded, and 200 µL DMSO was applied into each well before the absorbance value at 490 nm was determined via the microplate reader (Tecan Company, Männedorf, Switzerland). Cell proliferation was further detected by the BeyoClick™ EdU cell proliferation kit with Alexa Fluor 488 (Beyotime Institute of Biotechnology, Shanghai, China) according to the protocol of manufacturer. In brief, A549 cells (2 × 10^5 cells/well) were grown in 6-well plates and exposed to different concentrations of Smp24 (0, 1.25, 2.5 and 5 μM) for 24 h. Then, the cells were incubated with EdU for 2 h and stained with Alexa Fluor 488 for 30 min in the dark before cell fluorescence intensity was measured by flow cytometry (Becton Dickinson Company, Franklin Lakes, NJ, USA). The experiments had been performed in triplicate.

## N.N.[Cl][Pt][Cl] [cisplatin, reference compound]
  IC50: 32 ± 1.79 µM
